Experimental data from patent publication US12384798B2, “ACC inhibitor and use thereof” (NANJING RUIJIE PHARMA CO., LTD., priority 2019, dated 2025).
For at least one compound, name, drawing or mass did not settle the structure.

Protein sequences, listed by entry. Tags and fused reporters are not part of them.
UniProt O00763, whole entry, species assumed: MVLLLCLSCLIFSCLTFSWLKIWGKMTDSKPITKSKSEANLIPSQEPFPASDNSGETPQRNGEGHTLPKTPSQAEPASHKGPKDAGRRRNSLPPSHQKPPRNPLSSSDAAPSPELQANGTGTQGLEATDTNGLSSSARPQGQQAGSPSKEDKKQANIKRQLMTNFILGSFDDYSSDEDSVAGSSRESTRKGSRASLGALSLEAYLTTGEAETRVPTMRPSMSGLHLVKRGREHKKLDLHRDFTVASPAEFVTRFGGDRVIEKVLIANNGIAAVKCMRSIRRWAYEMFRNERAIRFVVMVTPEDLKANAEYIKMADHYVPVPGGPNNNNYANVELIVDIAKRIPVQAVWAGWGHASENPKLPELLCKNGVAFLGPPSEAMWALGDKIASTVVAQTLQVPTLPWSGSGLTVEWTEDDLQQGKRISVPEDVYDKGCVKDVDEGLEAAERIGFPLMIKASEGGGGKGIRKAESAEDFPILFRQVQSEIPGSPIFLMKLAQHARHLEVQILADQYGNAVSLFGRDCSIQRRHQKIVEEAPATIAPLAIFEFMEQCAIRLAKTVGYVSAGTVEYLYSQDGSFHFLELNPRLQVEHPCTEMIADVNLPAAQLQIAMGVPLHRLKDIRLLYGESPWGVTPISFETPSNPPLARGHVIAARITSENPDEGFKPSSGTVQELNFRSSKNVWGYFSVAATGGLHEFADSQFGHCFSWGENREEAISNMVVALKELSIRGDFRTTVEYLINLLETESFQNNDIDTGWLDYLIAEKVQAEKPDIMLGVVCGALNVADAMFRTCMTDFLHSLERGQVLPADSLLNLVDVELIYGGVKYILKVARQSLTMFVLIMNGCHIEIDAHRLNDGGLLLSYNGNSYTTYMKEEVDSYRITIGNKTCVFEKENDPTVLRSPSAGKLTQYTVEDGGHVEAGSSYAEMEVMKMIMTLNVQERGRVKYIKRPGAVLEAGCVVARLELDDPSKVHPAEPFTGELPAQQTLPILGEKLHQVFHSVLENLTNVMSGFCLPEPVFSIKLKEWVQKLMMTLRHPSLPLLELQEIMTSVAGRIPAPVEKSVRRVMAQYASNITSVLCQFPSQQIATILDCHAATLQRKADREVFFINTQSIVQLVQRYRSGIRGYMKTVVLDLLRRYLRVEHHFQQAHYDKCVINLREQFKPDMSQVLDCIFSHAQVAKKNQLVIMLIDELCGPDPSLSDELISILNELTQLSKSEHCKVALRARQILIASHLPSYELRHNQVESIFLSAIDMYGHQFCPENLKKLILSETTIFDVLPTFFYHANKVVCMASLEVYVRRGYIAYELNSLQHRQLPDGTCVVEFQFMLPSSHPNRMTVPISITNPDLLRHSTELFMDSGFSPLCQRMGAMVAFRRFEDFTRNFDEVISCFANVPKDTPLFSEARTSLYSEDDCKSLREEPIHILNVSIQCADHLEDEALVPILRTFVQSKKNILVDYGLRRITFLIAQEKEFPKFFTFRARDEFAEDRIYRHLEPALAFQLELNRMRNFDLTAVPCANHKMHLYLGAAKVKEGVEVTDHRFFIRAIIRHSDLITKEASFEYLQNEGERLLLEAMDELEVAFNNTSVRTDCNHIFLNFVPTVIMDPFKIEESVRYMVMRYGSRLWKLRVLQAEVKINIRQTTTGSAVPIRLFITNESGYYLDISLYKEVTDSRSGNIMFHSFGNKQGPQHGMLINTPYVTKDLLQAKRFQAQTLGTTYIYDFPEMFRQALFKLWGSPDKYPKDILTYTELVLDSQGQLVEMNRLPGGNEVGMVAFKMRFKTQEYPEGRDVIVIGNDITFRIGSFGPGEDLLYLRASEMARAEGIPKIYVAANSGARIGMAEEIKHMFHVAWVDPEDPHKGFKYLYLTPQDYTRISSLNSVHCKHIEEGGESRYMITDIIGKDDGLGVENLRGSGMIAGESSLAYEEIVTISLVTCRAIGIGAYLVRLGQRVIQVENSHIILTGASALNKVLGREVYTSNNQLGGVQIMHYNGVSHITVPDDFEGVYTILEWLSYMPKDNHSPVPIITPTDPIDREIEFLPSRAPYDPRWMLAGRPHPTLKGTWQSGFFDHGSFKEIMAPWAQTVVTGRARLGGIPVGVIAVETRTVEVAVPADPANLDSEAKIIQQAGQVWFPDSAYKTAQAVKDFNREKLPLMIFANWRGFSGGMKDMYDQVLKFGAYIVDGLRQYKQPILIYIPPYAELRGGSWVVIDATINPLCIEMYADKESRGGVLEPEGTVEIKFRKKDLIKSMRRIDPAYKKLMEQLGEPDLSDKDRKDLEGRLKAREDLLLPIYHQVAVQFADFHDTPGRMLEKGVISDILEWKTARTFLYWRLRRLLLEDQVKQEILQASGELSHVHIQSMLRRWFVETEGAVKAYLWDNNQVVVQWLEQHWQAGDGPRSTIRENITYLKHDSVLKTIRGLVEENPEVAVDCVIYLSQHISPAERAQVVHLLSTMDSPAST

How the values were obtained:
[1] = target: ACC1 (Homo sapiens (Human), UniProt Q13085); experiment: In vitro ACC inhibition assay (ADP-Glo), ACC1; format: biochemical
Description: (§1) An exemplary procedure for the in vitro ACC inhibition assay, which can be used to determine the inhibitory action of the compounds of the invention toward either ACC1 or ACC2, is as follows. The ADP-Glo™ kinase assay kit from Promega was used. The ADP-Glo™ kinase assay is a luminescent ADP detection assay to measure enzymatic activity by quantifying the amount of ADP produced during an enzyme reaction. The assay was performed in two steps; first, after the enzyme reaction, an equal volume of ADP-Glo™ reagent was added to terminate the reaction and deplete the remaining ATP. Then, the kinase detection reagent was added to simultaneously convert ADP to ATP and allow the newly synthesized ATP to be measured using a luciferase/luciferin reaction. Luminescence can be correlated to ADP concentrations by using an ATP-to-ADP conversion curve. The detailed procedure was as follows. 4.5 μL of a working solution was added to a 384-well plate. […] A final ACC reaction solution consisted of: 0.5 nM ACC, 10 μM ATP, 5 μM acetyl-CoA, and 15 mM NaHCO3; and the final concentrations of the compound were measured as follows: 1 μM, 0.333 μM, 0.111 μM, 0.037 μM, 0.0123 μM, 0.00411 μM, 0.00137 μM, 0.000457 μM, 0.000152 μM, and 0.000051 μM. […] The plates were incubated at room temperature for 40 minutes, then read on a Perkin Elmer EnVision 2104 plate reader for luminescence in relative light unit (RLU). […]

[2] = target: ACC2 (Homo sapiens (Human), UniProt O00763); experiment: In vitro ACC inhibition assay (ADP-Glo), ACC2; format: biochemical
Description: as §1

Question: Which “inhibitory properties against ACC1 (in words)” value [1] does the source give for `COc1ccccc1[C@H](Cn1c(=O)n(CC2CC(C(=O)O)C2)c(=O)c2c(C)c(-c3ncco3)sc21)OC1CCOCC1` (stereo partly drawn) [c-1, (R)-3-((1-(2-(2-methoxyphenyl)-2-((tetrahydro-2H-pyran-4-yl)oxy)ethyl)-5-methyl-6-(oxazol-2-yl)-2,4-dioxa-1,4-dihydrothieno[2,3-d]pyrimidine-3(2H)-yl)methyl)cyclobutane-1-carboxylic acid] here?
Answer: Its value is “good inhibitory properties”.

Question: What about the “inhibitory properties against ACC2 (in words)” value [2] of the same molecule?
Answer: Its value is “good inhibitory properties”.
